What all share (test): two-hybrid
Assay [1] concerns the target T1, Rpn8 (Saccharomyces cerevisiae proteasome lid subunit) (S. cerevisiae) (UniProt Q08723).
T1 sequence: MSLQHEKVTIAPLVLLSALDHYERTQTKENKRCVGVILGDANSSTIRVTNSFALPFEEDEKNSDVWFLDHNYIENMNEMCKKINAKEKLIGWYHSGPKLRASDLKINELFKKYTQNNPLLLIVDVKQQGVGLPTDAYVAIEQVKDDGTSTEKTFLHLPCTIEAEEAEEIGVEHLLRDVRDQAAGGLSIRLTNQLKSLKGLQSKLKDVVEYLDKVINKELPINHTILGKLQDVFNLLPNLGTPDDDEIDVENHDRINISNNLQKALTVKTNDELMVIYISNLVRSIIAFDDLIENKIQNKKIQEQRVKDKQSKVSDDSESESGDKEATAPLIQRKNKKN

Protein sequences, listed by entry. Tags and fused reporters are not part of them.
UniProt P43588: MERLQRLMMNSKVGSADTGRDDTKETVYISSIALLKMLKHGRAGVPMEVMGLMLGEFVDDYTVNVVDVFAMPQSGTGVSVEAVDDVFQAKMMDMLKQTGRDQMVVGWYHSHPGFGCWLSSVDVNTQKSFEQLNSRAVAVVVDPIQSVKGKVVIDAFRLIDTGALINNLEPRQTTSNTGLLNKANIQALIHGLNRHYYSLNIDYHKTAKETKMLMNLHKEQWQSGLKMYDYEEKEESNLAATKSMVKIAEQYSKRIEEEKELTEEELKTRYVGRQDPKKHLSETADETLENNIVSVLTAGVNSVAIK

The target of assay [2] is T2, Rpn6 (Saccharomyces cerevisiae proteasome lid subunit) (S. cerevisiae), Q12377.
T2 chain: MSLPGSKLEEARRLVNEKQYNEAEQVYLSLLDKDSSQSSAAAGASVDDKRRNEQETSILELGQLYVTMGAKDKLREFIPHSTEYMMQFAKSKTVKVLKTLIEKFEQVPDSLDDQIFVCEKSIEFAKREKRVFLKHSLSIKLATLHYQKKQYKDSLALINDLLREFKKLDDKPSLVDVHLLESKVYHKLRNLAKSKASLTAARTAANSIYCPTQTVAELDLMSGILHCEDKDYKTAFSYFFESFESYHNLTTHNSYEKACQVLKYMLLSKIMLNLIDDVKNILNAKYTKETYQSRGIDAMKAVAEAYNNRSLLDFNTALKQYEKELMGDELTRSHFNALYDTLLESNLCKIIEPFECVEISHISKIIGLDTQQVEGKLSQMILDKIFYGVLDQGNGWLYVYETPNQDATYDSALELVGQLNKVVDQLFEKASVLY
The note with it: remark: other sources report otherwise.

Assay [3] has as its target T3, Rpn7 (Saccharomyces cerevisiae proteasome lid subunit) (S. cerevisiae), Q06103.
T3 chain: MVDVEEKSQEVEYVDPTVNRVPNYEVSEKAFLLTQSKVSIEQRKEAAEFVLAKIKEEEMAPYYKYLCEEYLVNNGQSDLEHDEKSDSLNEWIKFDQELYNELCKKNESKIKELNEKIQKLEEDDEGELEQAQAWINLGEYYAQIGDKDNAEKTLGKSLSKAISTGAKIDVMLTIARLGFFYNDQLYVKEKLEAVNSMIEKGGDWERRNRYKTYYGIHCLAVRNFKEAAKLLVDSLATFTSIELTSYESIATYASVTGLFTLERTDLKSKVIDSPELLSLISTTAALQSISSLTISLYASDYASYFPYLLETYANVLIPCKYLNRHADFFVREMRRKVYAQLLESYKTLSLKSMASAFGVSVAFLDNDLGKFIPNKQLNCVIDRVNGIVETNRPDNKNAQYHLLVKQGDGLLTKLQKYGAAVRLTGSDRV
As to conditions: remark: other sources report otherwise.

Assay [4] deals with T4, Rpn8 (Saccharomyces cerevisiae proteasome lid subunit) (S. cerevisiae), Q08723.
T4 chain: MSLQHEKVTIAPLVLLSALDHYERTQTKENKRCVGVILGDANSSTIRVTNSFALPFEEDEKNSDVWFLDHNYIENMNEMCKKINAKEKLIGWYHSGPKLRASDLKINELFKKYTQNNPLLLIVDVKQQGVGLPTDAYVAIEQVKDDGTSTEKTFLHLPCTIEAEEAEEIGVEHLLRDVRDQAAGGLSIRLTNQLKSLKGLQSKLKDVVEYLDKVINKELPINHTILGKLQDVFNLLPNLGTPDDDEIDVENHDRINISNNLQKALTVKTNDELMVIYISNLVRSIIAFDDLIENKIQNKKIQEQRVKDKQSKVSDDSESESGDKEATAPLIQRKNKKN
As to conditions: remark: other sources report otherwise.

These are yes or no findings as the source states them, for the method shown. Some results given as binding are weak or reduced against the parent protein; the word gives no strength. Tags and fused reporters may be left off the sequences shown.

As to “Rpn11 (Saccharomyces cerevisiae proteasome lid subunit) (from UniProt P43588 1-306)”, the binding entry in assay [1] is “binds”.

B1: Rpn7 (Saccharomyces cerevisiae proteasome lid subunit), Q06103 1-429 (protein)
chain: MVDVEEKSQEVEYVDPTVNRVPNYEVSEKAFLLTQSKVSIEQRKEAAEFVLAKIKEEEMAPYYKYLCEEYLVNNGQSDLEHDEKSDSLNEWIKFDQELYNELCKKNESKIKELNEKIQKLEEDDEGELEQAQAWINLGEYYAQIGDKDNAEKTLGKSLSKAISTGAKIDVMLTIARLGFFYNDQLYVKEKLEAVNSMIEKGGDWERRNRYKTYYGIHCLAVRNFKEAAKLLVDSLATFTSIELTSYESIATYASVTGLFTLERTDLKSKVIDSPELLSLISTTAALQSISSLTISLYASDYASYFPYLLETYANVLIPCKYLNRHADFFVREMRRKVYAQLLESYKTLSLKSMASAFGVSVAFLDNDLGKFIPNKQLNCVIDRVNGIVETNRPDNKNAQYHLLVKQGDGLLTKLQKYGAAVRLTGSDRV
On to B1, for which the binding result in assay [2] is given as “no binding”.

B2: Rpn8 (Saccharomyces cerevisiae proteasome lid subunit), Q08723 1-338 (protein)
chain: MSLQHEKVTIAPLVLLSALDHYERTQTKENKRCVGVILGDANSSTIRVTNSFALPFEEDEKNSDVWFLDHNYIENMNEMCKKINAKEKLIGWYHSGPKLRASDLKINELFKKYTQNNPLLLIVDVKQQGVGLPTDAYVAIEQVKDDGTSTEKTFLHLPCTIEAEEAEEIGVEHLLRDVRDQAAGGLSIRLTNQLKSLKGLQSKLKDVVEYLDKVINKELPINHTILGKLQDVFNLLPNLGTPDDDEIDVENHDRINISNNLQKALTVKTNDELMVIYISNLVRSIIAFDDLIENKIQNKKIQEQRVKDKQSKVSDDSESESGDKEATAPLIQRKNKKN
As to B2, the binding result in assay [3] was “no binding”.

B3: Rpn3 (Saccharomyces cerevisiae proteasome lid subunit), P40016 1-523 (protein)
chain: MASTAVMMDVDSSGVNDLHHSEKKYAEEDQVQELLKVLNEISKTTLTLDPRYIWRSLKDLSSLRNQELLNAETLCFTVNVLYPDSSSFKKNLLKFITSNHKSSVPGSAELRNSYPASFYSVNTEKKTIEVTAEINCFMHLLVQLFLWDSKELEQLVEFNRKVVIPNLLCYYNLRSLNLINAKLWFYIYLSHETLARSSEEINSDNQNIILRSTMMKFLKIASLKHDNETKAMLINLILRDFLNNGEVDSASDFISKLEYPHTDVSSSLEARYFFYLSKINAIQLDYSTANEYIIAAIRKAPHNSKSLGFLQQSNKLHCCIQLLMGDIPELSFFHQSNMQKSLLPYYHLTKAVKLGDLKKFTSTITKYKQLLLKDDTYQLCVRLRSNVIKTGIRIISLTYKKISLRDICLKLNLDSEQTVEYMVSRAIRDGVIEAKINHEDGFIETTELLNIYDSEDPQQVFDERIKFANQLHDEYLVSMRYPEDKKTQQNEKSENGENDDDTLDGDLMDDMSDISDLDDLGFL
On to B3, for which, in assay [4], the binding result was “no binding”.

The record behind these values is article doi:10.1101/2024.09.18.613619 (bioRxiv, 2024).
